Laboratory results taken from PubChem BioAssay AID485314 (National Center for Advancing Translational Sciences (NCATS), 2010).
Screen size: about 340,000 compounds; about 4,500 (1.3%) were called active. The inconclusive results got no clear call from the source; some entries with a clear call stand among them for comparison. Calls follow the shape of the dose curve; as a rule, active = well fitted inhibition curve with a large enough effect; inconclusive = small, poorly fitted or top-dose-only effect, or another doubt; inactive = no such curve, though single readings can be large or run the other way. A potency beside an inconclusive call is a rough fit, not a confirmed value.

What follows are compounds tested against DNA polymerase beta (Homo sapiens) (UniProt P06746) (assay: qHTS Assay for Inhibitors of DNA Polymerase Beta). Conditions: Pol beta primer extension/strand displacement, fluorescence kinetic; activity change, negative = inhibition: at 114 µM (top of the series).
Outline: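 Preincubation: enzyme (10 nM) with compound, 15 min, RT. Reaction: substrate added to 50 nM final. Reads: 0 and 10 min. Analysis: normalized, Hill fit.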
% is scaled to controls: 0 for no effect and ±100 for the full control effect; potency is read from the fitted curve at half-maximal effect.

| SMILES | Potency | activity change, negative = inhibition |
| --- | --- | --- |
| COC(=O)CCN(C(=O)c1cccc([N+](=O)[O-])c1)c1ccccn1 | inconclusive: 100 µM [inhibitor, single point] | – |
| O=C(Nc1ccc(F)cc1F)c1ccc(COc2c(F)c(F)cc(F)c2F)o1 | inconclusive: 0.282 µM [inhibitor, full curve, poor fit] | – |
| NC(=O)N/N=C/c1ccccc1OC(=O)c1cc2ccccc2oc1=O | – | inconclusive: -97.5% [inhibitor] |
| CCC(=O)Oc1ccc(C(=O)Nc2cccc(C(=O)c3ccccc3)c2)cc1 | – | inactive: 0.0938% |
| COc1cc2[nH]c(C(=O)N3CCc4ccccc43)cc2c(OC)c1OC | inconclusive: 39.8 µM [inhibitor, partial curve] | – |
| Cc1nn(-c2ccccn2)c2c1C(=O)C(Br)CC2 (centres undefined) | – | inactive: 9.82% |
| Cc1ccccc1CCNC(=O)c1ccc2c(c1)c(C)c(C)n2Cc1ccccc1 | – | inactive: 9.83% |
| CCOC(=O)CNC(=S)N1CCn2c(nc3ccccc32)C1 | – | inactive: -4.69% |
| CCc1c(O)nc(SCC(=O)Nc2ccc(Br)cc2)n(-c2ccc(C)cc2)c1=O | inconclusive: 44.7 µM [inhibitor, partial curve, poor fit] | – |
| CCc1nnc(NC(=O)CSc2nnc3c(n2)[nH]c2ccccc23)s1 | inconclusive: 70.8 µM [inhibitor, partial curve] | – |
| Cc1ccc2nc(-c3ccc(NC(=O)CSc4nc(N)cc(=O)[nH]4)cc3)sc2c1 | – | inactive: -2.42% |
| S=C(c1ccc(-c2ccccc2)o1)N1CCCCC1 | inconclusive: 0.282 µM [inhibitor, full curve, poor fit] | – |
| CCN(CC)c1ccc(N=Cc2ccc([N+](=O)[O-])o2)cc1 | inconclusive: 15.8 µM [inhibitor, full curve] | – |
| Cn1c(=O)c2c(ncn2CC(=O)N/N=C/C=C/c2ccco2)n(C)c1=O | inconclusive: 20 µM [inhibitor, single point] | – |
| O=C(O)c1c2c(nc3ccc(Cl)cc13)CCC2 | active: 15.8 µM | – |
| O=C(/C=C/c1ccco1)NCC(=O)N/N=C/c1ccc([N+](=O)[O-])cc1 | inconclusive: 28.2 µM [inhibitor, full curve, poor fit] | – |
| CCCCc1cc(=O)oc2cc(C)c(CN3CCCC3)c(O)c12 | active: 5.01 µM | – |
| CCCN1CCN(C(=O)Cn2cnc3ccc(S(=O)(=O)N4CCC(C)CC4)cc3c2=O)CC1 | inconclusive: 89.1 µM [inhibitor, single point] | – |
| CCCCOc1ccc(C(=O)N2CCN(CCc3ccccn3)CC2)cc1 | – | inactive: -15.4% |
| CNC(=O)c1cc(Nc2nnc(-c3ccc(O)cc3)c3ccccc23)ccc1OC | inconclusive: 100 µM [inhibitor, partial curve, poor fit] | – |
| COc1cc(OC)cc(C(=O)N[C@H](C(=O)Nc2cccc(S(=O)(=O)N3CCCC3)c2)C(C)C)c1 | – | inconclusive: -101% [inhibitor] |
| O=C(O)c1ccccc1C(=O)Nc1ccc(Oc2cccc3ccccc23)cc1 | inconclusive: 44.7 µM [inhibitor, partial curve, poor fit] | – |

| SMILES | Potency | activity change, negative = inhibition |
| --- | --- | --- |
| Cc1nc2ccc([N+](=O)[O-])cc2c(=O)n1Cc1cccc(Br)c1 | active: 79.4 µM | – |
| C/C(=N\Nc1cccc(C(=O)O)c1)c1ccc2c(c1)Nc1ccccc1S2 | inconclusive: 15.8 µM [inhibitor, full curve] | – |
| CS(=O)(=O)N(CC(=O)NCCSCc1ccccc1Cl)c1ccc(F)cc1 | inconclusive: 39.8 µM [inhibitor, single point] | – |
| NS(=O)(=O)c1ccc(N2C(=O)C3CC=CCC3C2=O)cc1 (centres undefined) | inconclusive: 11.2 µM [inhibitor, full curve] | – |
| O=C1C2C3C=CC([C@@H]2C(=O)N1C1CC1)[C@H]1C(=O)N(C2CC2)C(=O)C31 (some centres undefined) | inconclusive: 3.16 µM [inhibitor, full curve] | – |
| Nc1nnc(Cc2ccc(Cl)c(Cl)c2)s1 | inconclusive: 89.1 µM [inhibitor, single point] | – |
| CCn1c(SCC(=O)Nc2sc(C)c(C)c2C#N)nnc1C1CC1 | – | inconclusive: -82.1% [inhibitor] |
| CCCC(C(=O)OCC)P(=O)(c1ccccc1)c1ccccc1 (centres undefined) | inconclusive: 25.1 µM [inhibitor, partial curve, poor fit] | – |
| COc1ccc(CCNC(=O)c2cc3c(=O)n4ccccc4nc3n(CCCN3CCOCC3)c2=N)cc1OC | active: 35.5 µM | – |
| O=C(CSc1nnc(-c2cccnc2)n1-c1ccccc1)Nc1ccc2c(c1)OCO2 | inconclusive: 35.5 µM [inhibitor, full curve, poor fit] | – |
| C=CCSc1nc2sc3c(c2c(=O)n1CC)CCC3 | inconclusive: 22.4 µM [inhibitor, full curve] | – |
| CCOc1ccc(N/C=C/C(=O)c2cc(OC)c(OC)c(OC)c2)cc1 | inconclusive: 56.2 µM [inhibitor, partial curve] | – |
| CCn1c(=O)cc(SCC(=O)NCCc2ccc(Cl)cc2)c2ccccc21 | inconclusive: 89.1 µM [inhibitor, single point] | – |
| COc1ccc(CC(=O)OCC(=O)NCc2ccc(Cl)cc2)cc1 | inconclusive: 100 µM [inhibitor, single point] | – |
| COc1ccc(/C=C/C(=O)Nc2sc3c(c2C(N)=O)CCCC3)cc1 | – | inconclusive: -33.3% [inhibitor] |
| CCn1cc(C(=O)NCc2ccccc2OC)c(=O)c2cc(S(=O)(=O)N3CCCCC3)ccc21 | inconclusive: 89.1 µM [inhibitor, single point] | – |
| S=c1cnc2ccccc2[nH]1 | – | inactive: -26% |
| COc1ccc(Nc2nc3ccccc3c3nnc(C)n23)cc1Cl | inconclusive: 0.141 µM [inhibitor, full curve, poor fit] | – |
| Cc1[nH][nH]c(=O)c1C(c1ccc(-c2cccc(C(=O)O)c2)o1)c1c(C)[nH][nH]c1=O | active: 20 µM | – |
| CCc1cccc(-n2nnc(-c3nc(-c4ccccc4Cl)no3)c2N)c1 | inconclusive: 39.8 µM [inhibitor, single point] | – |
| COC(=O)c1cccc(Oc2cccc(Cl)n2)c1 | – | inactive: -5.79% |
| COc1cc(/C=N/Nc2cc(C)nc(N)n2)ccc1O | – | inconclusive: -52.8% [inhibitor] |

Random excerpt: 2 entries already listed, in no set order.

| SMILES | Potency | activity change, negative = inhibition |
| --- | --- | --- |
| NS(=O)(=O)c1ccc(N2C(=O)C3CC=CCC3C2=O)cc1 (centres undefined) | inconclusive: 11.2 µM [inhibitor, full curve] | – |
| COc1ccc(Nc2nc3ccccc3c3nnc(C)n23)cc1Cl | inconclusive: 0.141 µM [inhibitor, full curve, poor fit] | – |
